According to PubChem BioAssay AID330 (DTP/NCI, 2004):
The list does not hold the whole screen: it gathers tests that were run many times, whatever their T/C, doses with no T/C, and many T/C values between a quarter and a half above the control. Further doses and runs are listed elsewhere. T/C: endpoint of the treated group in % of that of the vehicle group. Some entries give survivors of the animals treated and no T/C: the source holds a T/C of zero for them, seemingly a mark for toxic or unscored doses. Some survivor counts are full or nearly so, which does not show that the dose was tolerated: survival well below the control is almost never listed, so the zero probably covers shortened survival too. Survivors were counted at the toxicity check, usually on the fifth day, unless a day is given; later deaths do not show. Schedules are NCI's codes, taken here to give the interval after Q, in days (D) or hours (H), and the number of doses after X. Some doses were run more than once; their values stand side by side, smallest first. For survival time, the PubChem record calls one and a half times the control and up active, and a quarter to a half above the control has no call in these data; cut-offs in other NCI protocols can differ. Some T/C values carry the count of animals alive at the toxicity check (mostly the fifth day); without a count, all were alive then.

Tested on: P388 leukemia ip, CD2F1 mice, survival T/C
Assay: NCI In Vivo Anticancer Drug Screen. Data for tumor model P388 Leukemia (intraperitoneal) in CD2F1 (CDF1) mice
Conditions: T/C endpoint: median survival time, higher T/C = longer survival
[1] = dose: 400.0 mg/kg/injection, schedule: Q04DX003 (ip), vehicle: saline
[2] = dose: 50.0 mg/kg/injection, schedule: Q01DX009 (ip), vehicle: saline with Tween-80
[3] = dose: 100.0 mg/kg/injection, schedule: Q01DX005 (ip), vehicle: saline with Tween-80
[4] = dose: 50.0 mg/kg/injection, schedule: Q01DX009 (ip), vehicle: Klucel (hydroxypropylcellulose) (HPC)
[5] = dose: 100.0 mg/kg/injection, schedule: Q01DX009 (ip), vehicle: Klucel (hydroxypropylcellulose) (HPC)
[6] = dose: 50.0 mg/kg/injection, schedule: Q04DX003 (ip), vehicle: saline with Tween-80
[7] = dose: 400.0 mg/kg/injection, schedule: Q04DX002 (ip), vehicle: saline with Tween-80

CCC1=C[C@H]2CN(CCc3c([nH]c4ccccc34)[C@@](C(=O)OC)(c3cc4c(cc3OC)N(C)[C@H]3[C@@](O)(C(=O)NN)[C@H](O)[C@]5(CC)C=CCN6CC[C@]43[C@@H]65)C2)C1
T/C (dose: 0.06 mg/kg/injection, schedule: Q01DX001 (ip), vehicle: water): 134 % of control
T/C (dose: 0.13 mg/kg/injection, schedule: Q01DX001 (ip), vehicle: water): 137 % of control
T/C (dose: 0.25 mg/kg/injection, schedule: Q01DX001 (ip), vehicle: water): 146 % of control
survivor count (dose: 4.0 mg/kg/injection, schedule: Q01DX001 (ip), vehicle: water): 5 of 6
survivor count (dose: 8.0 mg/kg/injection, schedule: Q01DX001 (ip), vehicle: water): 2 of 6
survivor count (dose: 16.0 mg/kg/injection, schedule: Q01DX001 (ip), vehicle: water): 0 of 6
survivor count (dose: 32.0 mg/kg/injection, schedule: Q01DX001 (ip), vehicle: water): 0 of 6

CC(C)(C(=O)O)C(Nc1ncnc2c1ncn2C1OC(CO)C(O)C1O)C(=O)O (stereo not drawn)
survivor count [1]: 6 of 6

CCOC(=O)CSc1ccc(C)cc1C(O)(C(F)(F)F)C(F)(F)F
survivor count [2]: 1 of 6

CCCCN(CCCC)CCC(=O)c1ccc(Cl)c2ccccc12
survivor count [3]: 3 of 6

CSC(=S)NN=C(c1ccccn1)c1ccccn1
survivor count [2]: 6 of 6

COc1cc2c[n+](C)c(-c3ccc(Cl)c(Cl)c3)c(OC)c2cc1OC
survivor count (dose: 100.0 mg/kg/injection, schedule: Q04DX003 (ip), vehicle: suspension in saline): 0 of 6
survivor count (dose: 200.0 mg/kg/injection, schedule: Q04DX003 (ip), vehicle: suspension in saline): 0 of 6
survivor count (dose: 400.0 mg/kg/injection, schedule: Q04DX003 (ip), vehicle: suspension in saline): 0 of 6

COc1cc([C@@H]2c3cc4c(cc3C[C@H]3COC(=O)[C@@H]32)OCO4)cc2c1OCO2
T/C (dose: 7.5 mg/kg/injection, schedule: Q01DX009 (ip), vehicle: distilled water + Tween-80): 125 % of control
survivor count (dose: 15.0 mg/kg/injection, schedule: Q01DX009 (ip), vehicle: Klucel (hydroxypropylcellulose) (HPC)): 6 of 6
survivor count (dose: 30.0 mg/kg/injection, schedule: Q01DX009 (ip), vehicle: Klucel (hydroxypropylcellulose) (HPC)): 5 of 6
survivor count (dose: 60.0 mg/kg/injection, schedule: Q01DX009 (ip), vehicle: Klucel (hydroxypropylcellulose) (HPC)): 0 of 6

CC(=O)Nc1cc(N(CCOS(C)(=O)=O)CCOS(C)(=O)=O)ccc1N=O
T/C (dose: 0.02 mg/kg/injection, schedule: Q01DX009 (ip), vehicle: saline): 141 % of control
T/C (dose: 0.04 mg/kg/injection, schedule: Q01DX009 (ip), vehicle: saline): 137 % of control
T/C (dose: 0.62 mg/kg/injection, schedule: Q04DX003 (ip), vehicle: saline sonified): 145 % of control
survivor count (dose: 5.0 mg/kg/injection, schedule: Q04DX003 (ip), vehicle: saline with Tween-80): 5 of 6
survivor count (dose: 10.0 mg/kg/injection, schedule: Q04DX003 (ip), vehicle: saline with Tween-80): 2 of 6
survivor count (dose: 20.0 mg/kg/injection, schedule: Q04DX003 (ip), vehicle: saline with Tween-80): 0 of 6
survivor count (dose: 310.0 micrograms/kg/injection, schedule: Q01DX009 (ip), vehicle: saline): 6 of 6

COC(=O)C1(OC(C)=O)C(=O)NC2=C1C(=O)c1ccccc1C2=O (stereo not drawn)
survivor count [3]: 3 of 6
survivor count (dose: 200.0 mg/kg/injection, schedule: Q01DX005 (ip), vehicle: saline with Tween-80): 0 of 6

Cc1c2cccc(F)c2c[n+]2ccccc12
survivor count [4]: 0 of 6
survivor count [5]: 0 of 6

[Cu+2].[O-]c1ccc(Br)c2cccnc12.[O-]c1ccc(Br)c2cccnc12
survivor count [6]: 5 of 6
survivor count (dose: 75.0 mg/kg/injection, schedule: Q04DX003 (ip), vehicle: saline with Tween-80): 5 of 6
survivor count (dose: 100.0 mg/kg/injection, schedule: Q04DX003 (ip), vehicle: saline with Tween-80): 6 of 6
survivor count (dose: 200.0 mg/kg/injection, schedule: Q04DX003 (ip), vehicle: saline with Tween-80): 1 of 6
survivor count (dose: 400.0 mg/kg/injection, schedule: Q04DX003 (ip), vehicle: saline with Tween-80): 1 of 6

C=CC(C)(CCC=C(C)C)ON(C)C (stereo not drawn)
survivor count (dose: 200.0 mg/kg/injection, schedule: Q04DX002 (ip), vehicle: saline with Tween-80): 6 of 6
survivor count [7]: 3 of 6

Cc1cc(C)c(OP(=S)(Oc2c(C)cc(C)cc2C)Oc2c(C)cc(C)cc2C)c(C)c1
survivor count (dose: 400.0 mg/kg/injection, schedule: Q04DX002 (ip), vehicle: Klucel (hydroxypropylcellulose) (HPC)): 6 of 6

COc1cc(OC)c(NC(=O)C(Sc2nc(C)cc(C)c2C#N)c2ccccc2)cc1Cl (stereo not drawn)
survivor count (dose: 12.5 mg/kg/injection, schedule: Q01DX005 (ip), vehicle: Klucel (hydroxypropylcellulose) (HPC)): 6 of 6
survivor count (dose: 50.0 mg/kg/injection, schedule: Q01DX005 (ip), vehicle: Klucel (hydroxypropylcellulose) (HPC)): 6 of 6

C1CN2CCN1CC2.[Cl][Pt]([Cl])[Cl]
survivor count [7]: 0 of 6

C/C(=N/NC(=O)c1ccccc1)c1ccc(Cl)cc1Cl
survivor count (dose: 25.0 mg/kg/injection, schedule: Q01DX009 (ip), vehicle: Klucel (hydroxypropylcellulose) (HPC)): 6 of 6
survivor count [4]: 6 of 6

O=C(C=C(C(F)(F)F)C(F)(F)F)c1ccc(Cl)c2ccccc12
survivor count [6]: 6 of 6

Br/N=C1/C=CC=C/C1=N/Br
T/C (dose: 50.0 mg/kg/injection, schedule: Q01DX005 (ip), vehicle: saline): 125 % of control

C(=C\c1cc2cc(C3=NCCN3)ccc2o1)/c1ccc(C2=NCCN2)cc1
T/C (dose: 12.5 mg/kg/injection, schedule: Q04DX003 (ip), vehicle: saline): 127 % of control
T/C (dose: 25.0 mg/kg/injection, schedule: Q04DX003 (ip), vehicle: saline): 128 % of control
T/C (dose: 50.0 mg/kg/injection, schedule: Q04DX003 (ip), vehicle: saline): 140 % of control [5 of 6 alive]
survivor count (dose: 200.0 mg/kg/injection, schedule: Q04DX003 (ip), vehicle: saline): 4 of 6
survivor count [1]: 0 of 6

COC12C(COC(=O)NCCO)C3=C(C(=O)C(C)=C(N)C3=O)N1CC1NC12 (stereo not drawn)
T/C (dose: 4.5 mg/kg/injection, schedule: Q01DX009 (ip), vehicle: Klucel (hydroxypropylcellulose) (HPC)): 137 % of control
T/C (dose: 9.0 mg/kg/injection, schedule: Q01DX009 (ip), vehicle: Klucel (hydroxypropylcellulose) (HPC)): 146 % of control
T/C (dose: 28.0 mg/kg/injection, schedule: Q01DX009 (ip), vehicle: Klucel (hydroxypropylcellulose) (HPC)): 126 % of control
survivor count (dose: 43.0 mg/kg/injection, schedule: Q01DX009 (ip), vehicle: Klucel (hydroxypropylcellulose) (HPC)): 10 of 10 and 6 of 6
survivor count (dose: 65.0 mg/kg/injection, schedule: Q01DX009 (ip), vehicle: Klucel (hydroxypropylcellulose) (HPC)): 9 of 10
survivor count [5]: 10 of 10

CC(CCN1CCOCC1)Nc1ccnc2cc(Cl)ccc12 (stereo not drawn)
survivor count (dose: 100.0 mg/kg/injection, schedule: Q01DX005 (ip), vehicle: saline): 3 of 5
survivor count (dose: 200.0 mg/kg/injection, schedule: Q01DX005 (ip), vehicle: saline): 0 of 5

CSc1nc(Cl)c2cn[nH]c2n1
survivor count (dose: 400.0 mg/kg/injection, schedule: Q04DX002 (ip), vehicle: water): 2 of 6
